Measured values as given in paper PMC8421415.
No constants are given. Whether binding was seen depends on the method and setting. In cells and extracts the contact can be indirect. Some entries that bind do so weakly or less than the wild type.

The chains behind the UniProt entries cited, without tags or fusion partners.
UniProt O88597: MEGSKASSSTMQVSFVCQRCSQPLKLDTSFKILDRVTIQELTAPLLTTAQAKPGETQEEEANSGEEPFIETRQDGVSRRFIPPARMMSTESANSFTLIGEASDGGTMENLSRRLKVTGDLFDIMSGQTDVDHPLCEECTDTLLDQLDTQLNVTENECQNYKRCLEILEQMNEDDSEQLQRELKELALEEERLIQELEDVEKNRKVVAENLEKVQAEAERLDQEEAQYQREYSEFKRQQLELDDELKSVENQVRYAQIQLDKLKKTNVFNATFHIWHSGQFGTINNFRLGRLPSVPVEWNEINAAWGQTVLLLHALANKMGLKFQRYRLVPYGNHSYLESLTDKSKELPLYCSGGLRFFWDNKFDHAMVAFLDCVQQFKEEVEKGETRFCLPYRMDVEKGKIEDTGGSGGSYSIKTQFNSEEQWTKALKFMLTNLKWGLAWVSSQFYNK
UniProt Q6PF93: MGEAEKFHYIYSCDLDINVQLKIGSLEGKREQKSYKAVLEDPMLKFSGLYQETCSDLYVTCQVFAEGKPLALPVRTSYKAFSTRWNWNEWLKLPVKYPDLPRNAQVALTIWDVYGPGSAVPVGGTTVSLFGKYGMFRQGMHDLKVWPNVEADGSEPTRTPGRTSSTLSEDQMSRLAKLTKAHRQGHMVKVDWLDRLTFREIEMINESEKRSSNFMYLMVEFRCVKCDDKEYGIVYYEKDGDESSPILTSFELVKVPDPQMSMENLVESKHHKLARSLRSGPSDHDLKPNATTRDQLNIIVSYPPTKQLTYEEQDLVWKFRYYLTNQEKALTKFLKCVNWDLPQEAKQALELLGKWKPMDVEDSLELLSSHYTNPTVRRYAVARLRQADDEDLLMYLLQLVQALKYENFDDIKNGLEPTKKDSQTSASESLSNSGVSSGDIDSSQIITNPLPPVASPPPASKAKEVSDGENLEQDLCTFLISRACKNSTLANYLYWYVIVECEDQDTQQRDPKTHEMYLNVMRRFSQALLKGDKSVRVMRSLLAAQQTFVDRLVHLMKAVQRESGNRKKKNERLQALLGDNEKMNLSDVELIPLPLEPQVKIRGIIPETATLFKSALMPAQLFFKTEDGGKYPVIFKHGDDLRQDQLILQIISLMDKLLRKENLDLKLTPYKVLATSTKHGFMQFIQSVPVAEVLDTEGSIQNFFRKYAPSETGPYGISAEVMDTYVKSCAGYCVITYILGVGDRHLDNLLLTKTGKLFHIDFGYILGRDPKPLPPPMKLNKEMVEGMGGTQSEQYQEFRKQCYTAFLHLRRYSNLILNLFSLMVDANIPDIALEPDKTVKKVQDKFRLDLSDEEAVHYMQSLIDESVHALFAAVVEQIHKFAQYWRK

Molecular target: endogenous Beclin 1 (MEFs) (mouse (endogenous in MEFs)) (UniProt O88597)
Experiment: co-IP; immunoprecipitation of endogenous Beclin 1 from MEFs or HEK293; immunoblots of endogenous Vps34, ATG14L or UVRAG; cells with or without 0.2 mg/ml T. orientalis extract for 4 h; mouse IgG as negative IP control

binding: binds
Substance: endogenous Vps34 (MEFs) (from UniProt Q6PF93 1-887) (enzyme)
